Data reported in patent publication US20130123460A1, “PEPTIDE FOR IMPROVING BIOSTABILITY OF BIOACTIVE SUBSTANCE, AND BIOACTIVE SUBSTANCE HAVING IMPROVED BIOSTABILITY” (priority 2010, published 2013).
Some of these results come from one statement about several compounds together. At least one peptide structure holds a part that was inferred or is arguable (an end, a ring closure or a residue). Where no end group is shown, it is not given here.

Test: Plasma stability of GLP-1 peptide complex (remaining rate in rat plasma, HPLC/MS)
Type: in vitro ADME, SD rats
Conditions: 0.5 μmol/L, 37° C., relative to 0 hour = 100%

Sequence | Remaining rate in plasma after 48 hours (%)
HSEGTFTSDVSSYLEGQAAKEFIAWLVKGAKTVEGVKALIDEILAA [Example 18, [Ser8]-GLP-1(7-35)-GAm(28-44)] | equal effect to that obtained in the amide form
HSEGTFTSDVSSYLEGQAAKEFIAWLVKGGVKALIDEILAA [Example 19, [Ser8]-GLP-1(7-35)-GAm(33-44)] | equal effect to that obtained in the amide form
